Experimental data: PMC5605756
Results are given in words; binding and its absence hold for the method and conditions named. In cells and extracts the contact can be indirect. Binding can be weak; no strength is given. For part of these data: Tags and fused reporters may be left off the sequences shown.

Sequences of proteins named here, by UniProt entry; tags and fusion partners are left off.
UniProt Q00175: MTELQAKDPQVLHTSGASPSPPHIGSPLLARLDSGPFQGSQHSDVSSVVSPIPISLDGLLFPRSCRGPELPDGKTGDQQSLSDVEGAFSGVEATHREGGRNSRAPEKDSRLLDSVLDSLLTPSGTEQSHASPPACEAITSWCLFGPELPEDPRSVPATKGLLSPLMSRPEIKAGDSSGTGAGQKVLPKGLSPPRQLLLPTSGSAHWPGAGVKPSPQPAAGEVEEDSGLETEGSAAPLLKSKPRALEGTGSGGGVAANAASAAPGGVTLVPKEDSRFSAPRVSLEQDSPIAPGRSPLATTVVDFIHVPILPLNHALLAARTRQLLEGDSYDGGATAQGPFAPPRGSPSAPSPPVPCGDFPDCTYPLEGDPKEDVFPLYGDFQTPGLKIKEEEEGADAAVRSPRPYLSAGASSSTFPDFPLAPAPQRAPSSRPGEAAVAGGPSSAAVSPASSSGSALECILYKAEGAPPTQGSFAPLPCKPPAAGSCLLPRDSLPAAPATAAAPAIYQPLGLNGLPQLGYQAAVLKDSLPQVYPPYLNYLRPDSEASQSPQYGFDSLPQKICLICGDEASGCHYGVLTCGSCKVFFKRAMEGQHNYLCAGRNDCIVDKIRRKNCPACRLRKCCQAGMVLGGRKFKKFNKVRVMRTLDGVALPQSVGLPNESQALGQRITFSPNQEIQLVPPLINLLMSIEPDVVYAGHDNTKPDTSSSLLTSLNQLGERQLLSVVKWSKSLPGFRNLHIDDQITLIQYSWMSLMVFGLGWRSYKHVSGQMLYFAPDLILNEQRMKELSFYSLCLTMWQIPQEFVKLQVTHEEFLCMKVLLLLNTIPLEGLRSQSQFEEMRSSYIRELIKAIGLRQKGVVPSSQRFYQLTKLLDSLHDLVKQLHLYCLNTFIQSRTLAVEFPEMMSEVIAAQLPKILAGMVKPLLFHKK

B1: BCL2 antagonist/killer 1 (protein, UniProt O08734 1-209)
chain: MASGQGPGPPKVGCDESPSPSEQQVAQDTEEVFRSYVFYLHQQEQETQGAAAPANPEMDNLPLEPNSILGQVGRQLALIGDDINRRYDTEFQNLLEQLQPTAGNAYELFTKIASSLFKSGISWGRVVALLGFGYRLALYVYQRGLTGFLGQVTCFLADIILHHYIARWIAQRGGWVAALNFRRDPILTVMVIFGVVLLGQFVVHRFFRS
B2: Cyclin C (protein, UniProt Q62447 1-283)
chain: MAGNFWQSSHYLQWILDKQDLLKERQKDLKFLSEEEYWKLQIFFTNVIQALGEHLKLRQQVIATATVYFKRFYARYSLKSIDPVLMAPTCVFLASKVEEFGVVSNTRLIAATTSVLKTRFSYAFPKEFPYRMNHILECEFYLLELMDCCLIVYHPYRPLLQYVQDMGQEDVLLPLAWRIVNDTYRTDLCLLYPPFMIALACLHVACVVQQKDARQWFAELSVDMEKILEIIRVILKLYEQWKNFDERKEMATILSKMPKPKPPPNSEGEQGPNGSQNSSYSQS

Legend:
[1] = target: glutathione S-transferase-tagged mouse progestin receptor PR-B (mouse) (UniProt Q00175); test: pull-down; GST-PRA or GST-PRB bound to R5020, immobilised on glutathione Sepharose 4B, incubated 1 h at 4°C with pooled female mouse hypothalamic homogenate; eluted by boiling in Laemmli buffer; Western blot; only the target purified
[2] = target: glutathione S-transferase-tagged mouse progestin receptor PR-A (mouse); test: pull-down; GST-PRA or GST-PRB bound to R5020, immobilised on glutathione Sepharose 4B, incubated 1 h at 4°C with pooled female mouse hypothalamic homogenate; eluates spotted and read by reverse phase protein array (RPPA) with 212 antibodies, normalised to PR signal; a hit has a ratio R5020/no ligand ≥2 and p < 0.05; only the target purified

Molecule | binding [1] | binding [2]
synapsin-Ia (from UniProt O88935-2) | binds | 
B1 |  | binds
B2 |  | binds
